The results in this text go back to US7981443B2, “Method of treating sleep disordered breathing using topiramate” (priority 2000, dated 2011).

The test system of this series is obstructive sleep apnoea (OSA). Put plainly: Double-blind, placebo controlled cross-over study of topiramate in patients with light to moderate OSA. The class given is in vivo. To be noted: after topiramate 100 mg b.i.d for 10 days. On the procedure:
A double-blind, placebo controlled cross-over study of topiramate was undertaken in 2 patients with light to moderate OSA (A/H index, 22 and 35 on previous screening). Topiramate (100 mg b.i.d or corresponding placebo) was administered for 10 days in each cross-over period. A wash-out period of one week was applied between the two treatment periods.

`CC1(C)O[C@@H]2[C@@H](CO[C@@]3(COS(N)(=O)=O)OC(C)(C)O[C@@H]23)O1` [topiramate, 2,3:4,5-di-o-isopropylidene-β-D-fructopyranose sulfamate]: the “Relative proportions of non-REM stage 1+2, slow wave sleep and REM sleep” value is recorded as “remained unchanged”; the Total sleep time entry was “no clinically significant change”.
